Chains of the proteins cited; added tags and fusions are not shown. Lines headed by an entry give the natural chain unless they say otherwise; changes in a name come on top.
UniProt P17802: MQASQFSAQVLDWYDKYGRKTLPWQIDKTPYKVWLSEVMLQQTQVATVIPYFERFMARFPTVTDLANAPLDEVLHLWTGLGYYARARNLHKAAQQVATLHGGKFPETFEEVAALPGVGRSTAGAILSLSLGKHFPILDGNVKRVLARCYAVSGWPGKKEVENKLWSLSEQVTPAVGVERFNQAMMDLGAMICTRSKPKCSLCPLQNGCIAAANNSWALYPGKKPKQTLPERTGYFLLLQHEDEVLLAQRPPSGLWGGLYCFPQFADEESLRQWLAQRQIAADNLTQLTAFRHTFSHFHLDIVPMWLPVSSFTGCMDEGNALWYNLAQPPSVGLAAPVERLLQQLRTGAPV

According to patent US6369237:

Target: MutY adenine DNA glycosylase (UniProt P17802)
Assay: EMSA
Settings: N at position 13 of SEQ 1 is adenine linked by CH2 to pyrrolidine (transition state analog 2a); N at position 13 of SEQ 2 is 8-oxoG [strand 1: 13 (adenine-CH2-pyrrolidine, 2a); strand 2: 13 (8-oxoG)]; estimated upper limit; label: 5'-32P on SEQ 1 strand; letters built from the parent sequence and the stated change

GGATAGTGTCCAAGTTACTCGAAGC / GCTTCGAGTAACGTGGACACTATCC [hA (inhibitor 2a) 25-mer duplex opposite oxoG]
Kd: < 2 pM

The exact form of at least one protein or probe is not confirmed.
